# Reference: PubChem BioAssay AID1347426 (Functional Genomics Laboratory (NCATS/FGL), 2020)
# Among all 31,000 sequences or so, about 1,400 (4.5%) were called active.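 Rule for the calls: active = median seed-adjusted z-score above 1 or below -1; inactive = the rest.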 The list shows a part of the results.
# Assay: Novel Modifiers of Survival Motor Neuron (SMN) Protein: Gene Identification via Genome-wide siRNA Screen;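 note: luminescence tracks full-length SMN protein made from the SMN2 reporter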
# Conditions: HEK293T SMN2-luciferase reporter, siRNA knockdown, 72 h; actives lie on both sides
# Summary of the method: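 Luciferase signal, proportional to full-length SMN made from an SMN2 cDNA reporter in stable HEK293T cells, was read 72 h after siRNA reverse transfection. Values were expressed as MAD scores after non-targeting-control normalization and log10 conversion; seed analysis flagged off-targets.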
row,Sequence,median seed-adjusted z-score
1,GAGCUUUGCUGACCCUUCATT against ZNF668,inactive: 0
2,GAAACUCCCGGGUAACUCATT against ZBTB39,inactive: -0.209
3,GGACCUUUGGUCAUACUAATT against ENPP4,inactive: 0
4,CCAAGUUAUUGAUUACAAATT against OPN5,inactive: 0.483
5,GAACCACGGUAACCAUCUATT against GPR18,inactive: -0.378
6,AGAAUACGAUGACCACCAATT against RING1,inactive: 0.685
7,CUCCAGUUGAUAGAGAAAATT against HOXA9,inactive: -0.304
8,GCGUGACCAUGAACGAGUUTT against AKT1,inactive: -0.288
9,CUGGAAUUCUUAAGUAAAATT against ANP32C,inactive: -0.421
10,CUGUGGAAUUUGUAGGAUUTT against RCHY1,inactive: -0.157
11,GGAGUAACAAGACCAAUGATT against F13A1,inactive: -0.508
12,GCCUGUCCUUCUCCAUUGATT against ISX,active: 1.99
13,GAACAACAGCUCAGAACAATT against RARA,inactive: -0.0195
14,GUACUACACUGAGGACCAATT against HABP2,inactive: -0.141
15,GCCGGAUUCUGAAAGUGUATT against OSBPL1A,inactive: 0.0845
16,GGUACGCUGUGGAAUGAGATT against STK16,inactive: 0.113
17,GGUUUUCACUCAAGCAUCATT against ZBTB32,inactive: 0.458
18,CAUCUACACUUAUUACACUTT against KCNT2,inactive: 0.449
19,GCAUCUACAAGCUGCUAUATT against BEST1,inactive: -0.322
20,CUCAUAAUCUGCUAACGGATT against QTRT1,inactive: 0.0708
21,GAAGGACGGAGUACUAAUATT against TP53BP1,inactive: -0.166
22,GAGCUUGACUCGAGUCUUATT against GSTA5,inactive: 0.523

row,Sequence,median seed-adjusted z-score
1,GGAUAUAACGAGAAUGUCUTT against MED27,active: -1.62
2,GCCCAUACAAAAAUCCUUATT against ZNF354B,inactive: 0.393
3,AGUGUACAAUCGAUAAAAATT against ESR2,active: -1.1
4,GCAAUGACCUGGAGAGACATT against SPNS3,inactive: -0.00533
5,CCGCAGUGAUUAUGACAUATT against PRSS12,inactive: 0.119
6,CCAUUACCUUGUGAACGGATT against ADAM18,inactive: -0.913
7,CCUCAUUCGUGAUAGUGAATT against NCK1,inactive: -0.0795
8,CCAAGGGCACGGGAAUUAATT against PON2,inactive: 0
9,CGUACUUCCAGUCAAUUAATT against EXT2,inactive: -0.127
10,GGACUACGGUUGUCAGAAATT against TRPC1,inactive: -0.196
11,GGAUCGUUUAUGAACCUAATT against SLITRK6,inactive: -0.136
12,GCCCUGUACUGGUUCAACUTT against SLC25A39,inactive: -0.111
13,GCAACCCACCAAUAACUAATT against ADAM29,inactive: 0.904
14,GGUCCAGGUUAAAACAGAATT against HDAC9,inactive: -0.135
15,GCACCAUUGUGACCUACCATT against HYOU1,inactive: 0.0557
16,CAAUGCUAUUUCAAAGCAATT against ZCCHC8,inactive: 0.356
17,GCCUUAAACCUUUUGAAAATT against SERPINB6,inactive: 0.0155
18,GGACUUUAUAGACAAACUATT against PSKH2,inactive: 0.0439
19,GCGAAAAGCUGGAACGACATT against RACGAP1,inactive: 0
20,AGAAUAAAGCGAUUCCACATT against LCN6,inactive: 0.584
21,GCAUCCUCCUUCUGGACUATT against S1PR2,inactive: -0.964
22,CCACGUCCUUUGACAAGUUTT against PPP1R3C,inactive: 0

# Three consecutive records out of the list so far, quoted:
row,Sequence,median seed-adjusted z-score
7,CCUCAUUCGUGAUAGUGAATT against NCK1,inactive: -0.0795
8,CCAAGGGCACGGGAAUUAATT against PON2,inactive: 0
9,CGUACUUCCAGUCAAUUAATT against EXT2,inactive: -0.127

# (next part)

row,Sequence,median seed-adjusted z-score
1,GUUCAGCCGUGGAAAGAAATT against WFDC6,inactive: 0.0443
2,GGUUAGAAGAUGGUCGUGATT against ACOX2,inactive: -0.545
3,ACACCUACCUGGUCCUCAUTT against MC3R,inactive: 0.424
4,AGAUUUCUACCACUCCAAATT against CDKN1A,inactive: 0.158
5,GCUGCGCACAAGUAAGGAATT against AP2A2,inactive: 0.158
6,GGAGAGAAGUUUUCAACUUTT against USP22,inactive: 0
7,GUCCCGCUAUGACUACUUUTT against GRM2,inactive: -0.664
8,GUAUUUGUAUCUAUGGAAATT against GCNT2,inactive: -0.0107
9,GCCUGUUAAUCUGCGUGAATT against USP9X,inactive: -0.443
10,GGGUUGCAAUGGUUCCACATT against LIN9,inactive: 0
11,UCACUGUCCCAGACACCAATT against EPO,inactive: 0.148
12,GCACUGUGCUUAAGCUGGATT against PKN1,inactive: -0.753
13,GGUGCAUCAUUUUGAGAUUTT against ITIH1,inactive: 0.0403
14,CAUGAUAUCUGGACCCAAATT against SSX3,inactive: 0
15,GCAUGAUCUUAGUCAAGGATT against PROSC,inactive: 0.173
16,GUGGUAUCGUGAGUCUAAATT against MTTP,inactive: 0
17,AGACAAUCAGGGAAUUAAATT against THAP6,inactive: 0.368
18,GAAUAGACUUGCUAUCAAATT against AK7,inactive: -0.702
19,CAGUGUACCUGUGAAGACATT against GPR110,inactive: 0.0158
20,CGUCCAUGUUUAUCUACAATT against ENTPD2,inactive: 0.0319
21,GCAUAUGGUUCUGAAGAUATT against GTF2E1,active: 1.76
22,CAGAGUAACUGGACGAAAUTT against NFAT5,inactive: 0.106

# Looked up above:
# In median seed-adjusted z-score, GGUGCAUCAUUUUGAGAUUTT against ITIH1 reads inactive: 0.0403
# In median seed-adjusted z-score, CAGUGUACCUGUGAAGACATT against GPR110 reads inactive: 0.0158
# In median seed-adjusted z-score, GUGGUAUCGUGAGUCUAAATT against MTTP reads inactive: 0

# More results:

row,Sequence,median seed-adjusted z-score
1,GAAGAUCGAUUUGACAAAUTT against TM9SF3,inactive: -0.267
2,CAAUGCAGUUUAUUAGUCATT against RIT2,inactive: 0.253
3,GAUGGGUAAAUGUACAUAUTT against KCNIP4,inactive: -0.401
4,GGAUUACGUAUCAGACAUATT against CNGA1,active: -1.08
5,CCAUUGAUGACUGUACUAATT against RP2,inactive: -0.655
6,GCUUAUUGUCCAUUCACAUTT against NAT8,inactive: -0.228
7,GCAUCUACGACCAGGUGUATT against PAQR9,inactive: 0.116
8,CAACAUCGCUGACCAGGAUTT against ASB10,inactive: 0
9,CACCCAGUGUAGAACUAGATT against ARID4B,inactive: 0.211
10,GUUUGAUGGUAGGAUCGUATT against CAPS2,inactive: 0.135
11,GAGUCACAGUUGAAGAUCUTT against GOT2,inactive: 0.205
12,GGCAAAAUCCCGUAUGAAATT against ITK,inactive: -0.0372
13,CGACUAGUACAUCAAUUAATT against ERC2,inactive: 0.172
14,GCUACCACCUAAUAGUUUUTT against DECR1,inactive: 0.0567
15,GAGCCUGACUCAGUCUUUATT against AQP9,inactive: -0.192
16,GGAAUAUCUUGUACCGGAATT against QRSL1,inactive: -0.539
17,GGGAUUUUUCUGCAAAGAATT against ATG4A,inactive: -0.288
18,GGAUUUCUAGGUGGAGUAATT against CHPT1,inactive: 0.0678
19,AAAUCCCGGUGAUAAUAGATT against MAP1LC3B,inactive: -0.0749
20,GCGAGAAAGUCAUGCAUGATT against PCDH19,inactive: 0
21,CUACCUGUAUGAGAUCCAATT against IGF2R,inactive: 0.274
22,GAUUAUCCUUGUACUUUGATT against OAZ1,inactive: 0.144

row,Sequence,median seed-adjusted z-score
1,GUUUUUAUCUGAAUGCAUATT against BCL2L10,inactive: 0.361
2,CGUGCCUUAUGUCCUCAUATT against RHOJ,inactive: -0.304
3,GCAUAUAGAGUAACAACAATT against SNX2,inactive: -0.569
4,AGUUCACCGUGCAAAUGCATT against HBM,inactive: 0
5,AGUGCAUGGUUGCAGCUGATT against RNF144A,inactive: -0.185
6,GAACAGUGCGGUGAUAUUATT against ENOX1,inactive: 0.0694
7,GGACAGUGGAACUUAUAGATT against MANBA,inactive: 0.473
8,CGCGGCAGGUCAUUAGUAATT against EIF2AK3,inactive: -0.0208
9,GGUACUUUACUAUCUUCUATT against MC4R,inactive: 0.154
10,UGAAUACAACGCCACACAATT against HNRNPA1L2,inactive: 0.732
11,CAGCCGUCGAAGGAACUCATT against KIF12,inactive: 0.0971
12,CACAAGUUGUGCCUAAUAATT against ZNF280B,inactive: 0.113
13,GCAUAAGGAUAGCACUGGATT against SDCBP,inactive: 0.0325
14,CUAAGAUGGUUAUCAAGAATT against SLC1A2,inactive: 0.249
15,GCGAGUCCAUAGGCGAGAATT against RAPSN,inactive: 0.143
16,GACUUGAAGAUGCUAAUCATT against TIPIN,inactive: 0
17,GGUGAACAGUGGUAUAGCATT against HDAC10,inactive: -0.165
18,GGAUGACCCUCAAUGACGATT against ZFHX4,inactive: 0.0868
19,GCGUCAGGGCUAUACCAUATT against CACNA1E,inactive: 0.285
20,UCACUAUUCUAUGCCUUAATT against TAGAP,inactive: 0
